# Data published in the supplement of paper PMC8728848.
# Some of the results follow.
# B1: HA-00510 (Pseudomonas aeruginosa), Q02V39_PSEAB (protein)
# chain: GVPIVNIATPNGAGLSNNHFRDYNVGANGLILNNATGKTQGTQLGGIILGNPNLKGQAAQVILNQVTGGNRSTLAGYTEVAGQSARVIVANPHGITCQGCGFINTPRATLTTGKPIMDGQRLERFQVDGGDIVVEGAELNVGNLEQFDLITRSAKLNAKLYAKNLNIVTGRNDVQADSLQATPRAADGSEKPQLAIDSSALGGMYAGAIRLVGTEQGVGVKLAGDMAASGGDIRIDASGKLSLAQASSQGDLKIAAQAVELNGKTYAGGSAEIRSAEELVNRQS
# Columns and labels:
# Assay in all cases: glycan array binding signal (z-score within array); higher = stronger binding
# Conditions in all cases: glycan notation: IUPAC condensed, linker removed
# [1] = target: Neu5Ac(a2-6)Gal(b1-4)GlcNAc(b1-2)Man(a1-3)[GlcNAc(b1-4)][Neu5Ac(a2-6)Gal(b1-4)GlcNAc(b1-2)Man(a1-6)]Man(b1-4)GlcNAc(b1-4)GlcNAc
# How it was run: (§1)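 From the Consortium for Functional Glycomics database, 3228 arrays were curated, keeping only those whose protein sequence was available. Binding is given as a within-array Z-score averaged across arrays sharing a protein sequence and across linkers. Negative Z-scores can be read as non-binding.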
# [2] = target: Neu5Ac(a2-6)Gal(b1-4)GlcNAc(b1-2)Man(a1-3)[Man(a1-6)]Man(b1-4)GlcNAc(b1-4)GlcNAc
# How it was run: as §1
# [3] = target: Neu5Ac(a2-6)Gal(b1-4)GlcNAc(b1-2)Man(a1-3)[Neu5Ac(a2-3)Gal(b1-4)GlcNAc(b1-2)Man(a1-6)]Man(b1-4)GlcNAc(b1-4)GlcNAc
# How it was run: as §1
# [4] = target: Neu5Ac(a2-6)Gal(b1-4)GlcNAc(b1-2)Man(a1-3)[Neu5Ac(a2-6)Gal(b1-4)GlcNAc(b1-2)Man(a1-6)]Man(b1-4)GlcNAc(b1-4)GlcNAc
# How it was run: as §1
# [5] = target: Neu5Ac(a2-6)Gal(b1-4)GlcNAc(b1-2)Man(a1-3)[Neu5Ac(a2-6)Gal(b1-4)GlcNAc(b1-2)Man(a1-6)]Man(b1-4)GlcNAc(b1-4)[Fuc(a1-6)]GlcNAc
# How it was run: as §1
# [6] = target: Neu5Ac(a2-6)Gal(b1-4)GlcNAc(b1-2)Man(a1-6)Man(b1-4)GlcNAc(b1-4)GlcNAc
# How it was run: as §1
# [7] = target: Neu5Ac(a2-6)Gal(b1-4)GlcNAc(b1-2)Man(a1-6)[Gal(b1-4)GlcNAc(b1-2)Man(a1-3)]Man(b1-4)GlcNAc(b1-4)GlcNAc
# How it was run: as §1
# [8] = target: Neu5Ac(a2-6)Gal(b1-4)GlcNAc(b1-2)Man(a1-6)[GlcNAc(b1-2)Man(a1-3)]Man(b1-4)GlcNAc(b1-4)GlcNAc
# How it was run: as §1
# [9] = target: Neu5Ac(a2-6)Gal(b1-4)GlcNAc(b1-2)Man(a1-6)[Man(a1-3)]Man(b1-4)GlcNAc(b1-4)GlcNAc
# How it was run: as §1
# [10] = target: Neu5Ac(a2-6)Gal(b1-4)GlcNAc(b1-2)[Neu5Ac(a2-6)Gal(b1-4)GlcNAc(b1-4)]Man(a1-3)[GlcNAc(b1-4)][Neu5Ac(a2-6)Gal(b1-4)GlcNAc(b1-2)[Neu5Ac(a2-6)Gal(b1-4)GlcNAc(b1-6)]Man(a1-6)]Man(b1-4)GlcNAc(b1-4)GlcNAc
# How it was run: as §1
# [11] = target: Neu5Ac(a2-6)Gal(b1-4)GlcNAc(b1-2)[Neu5Ac(a2-6)Gal(b1-4)GlcNAc(b1-4)]Man(a1-3)[GlcNAc(b1-4)][Neu5Ac(a2-6)Gal(b1-4)GlcNAc(b1-4)Man(a1-6)]Man(b1-4)GlcNAc(b1-4)GlcNAc
# How it was run: as §1
# [12] = target: Neu5Ac(a2-6)Gal(b1-4)GlcNAc(b1-2)[Neu5Ac(a2-6)Gal(b1-4)GlcNAc(b1-6)]Man(a1-6)[Neu5Ac(a2-6)Gal(b1-4)GlcNAc(b1-2)Man(a1-3)][GlcNAc(b1-4)]Man(b1-4)GlcNAc(b1-4)GlcNAc
# How it was run: as §1
# [13] = target: Neu5Ac(a2-6)Gal(b1-4)GlcNAc(b1-3)Gal(b1-3)GlcNAc
# How it was run: as §1
# [14] = target: Neu5Ac(a2-6)Gal(b1-4)GlcNAc(b1-3)Gal(b1-4)GlcNAc
# How it was run: as §1
# [15] = target: Neu5Ac(a2-6)Gal(b1-4)GlcNAc(b1-3)Gal(b1-4)GlcNAc(b1-2)Man(a1-3)[Neu5Ac(a2-6)Gal(b1-4)GlcNAc(b1-3)Gal(b1-4)GlcNAc(b1-2)Man(a1-6)]GalNAc
# How it was run: as §1
# [16] = target: Neu5Ac(a2-6)Gal(b1-4)GlcNAc(b1-3)Gal(b1-4)GlcNAc(b1-3)Gal(b1-4)GlcNAc
# How it was run: as §1
# [17] = target: Neu5Ac(a2-6)Gal(b1-4)GlcNAc(b1-3)Gal(b1-4)GlcNAc(b1-3)Gal(b1-4)GlcNAc(b1-2)Man(a1-3)[Neu5Ac(a2-6)Gal(b1-4)GlcNAc(b1-3)Gal(b1-4)GlcNAc(b1-3)Gal(b1-4)GlcNAc(b1-2)Man(a1-6)]GalNAc
# How it was run: as §1
# [18] = target: Neu5Ac(a2-6)Gal(b1-4)GlcNAc(b1-3)Gal(b1-4)GlcNAc(b1-3)GalNAc
# How it was run: as §1
# [19] = target: Neu5Ac(a2-6)Gal(b1-4)GlcNAc(b1-3)Gal(b1-4)GlcNAc(b1-3)[Neu5Ac(a2-6)Gal(b1-4)GlcNAc(b1-3)Gal(b1-4)GlcNAc(b1-6)]GalNAc
# How it was run: as §1
# [20] = target: Neu5Ac(a2-6)Gal(b1-4)GlcNAc(b1-3)Gal(b1-4)GlcNAc(b1-6)[Gal(b1-3)]GalNAc
# How it was run: as §1
# [21] = target: Neu5Ac(a2-6)Gal(b1-4)GlcNAc(b1-3)Gal(b1-4)[Fuc(a1-3)]GlcNAc(b1-3)Gal(b1-4)[Fuc(a1-3)]GlcNAc
# How it was run: as §1
# [22] = target: Neu5Ac(a2-6)Gal(b1-4)GlcNAc(b1-3)GalNAc
# How it was run: as §1
# [23] = target: Neu5Ac(a2-6)Gal(b1-4)GlcNAc(b1-3)[Neu5Ac(a2-6)Gal(b1-4)GlcNAc(b1-6)]GalNAc
# How it was run: as §1
# [24] = target: Neu5Ac(a2-6)Gal(b1-4)GlcNAc(b1-6)GalNAc
# How it was run: as §1
# [25] = target: Neu5Ac(a2-6)Gal(b1-4)GlcNAc(b1-6)[Gal(b1-3)GlcNAc(b1-3)]Gal(b1-4)Glc
# How it was run: as §1
# [26] = target: Neu5Ac(a2-6)Gal(b1-4)GlcNAc(b1-6)[Gal(b1-3)]GalNAc
# How it was run: as §1
# [27] = target: Neu5Ac(a2-6)Gal(b1-4)GlcNAc6S
# How it was run: as §1
# Neu5Ac(a2-6)GalNAc = target: Neu5Ac(a2-6)GalNAc
# How it was run: as §1
# [28] = target: Neu5Ac(a2-6)GalNAc(b1-4)GlcNAc
# How it was run: as §1
# [29] = target: Neu5Ac(a2-6)GalNAc(b1-4)GlcNAc6S
# How it was run: as §1
# [30] = target: Neu5Ac(a2-6)GlcNAc(b1-4)GlcNAc
# How it was run: as §1
binder,measurement,setting,value
B1,glycan array binding signal (z-score),[1],-1.02
same,glycan array binding signal (z-score),[2],0.542
same,glycan array binding signal (z-score),[3],-0.534
same,glycan array binding signal (z-score),[4],-0.565
same,glycan array binding signal (z-score),[5],0.558
same,glycan array binding signal (z-score),[6],-0.187
same,glycan array binding signal (z-score),[7],0.066
same,glycan array binding signal (z-score),[8],-0.425
same,glycan array binding signal (z-score),[9],-0.358
same,glycan array binding signal (z-score),[10],-0.337
same,glycan array binding signal (z-score),[11],0.235
same,glycan array binding signal (z-score),[12],-0.499
same,glycan array binding signal (z-score),[13],2.34
same,glycan array binding signal (z-score),[14],-0.921
same,glycan array binding signal (z-score),[15],-0.078
same,glycan array binding signal (z-score),[16],-0.919
same,glycan array binding signal (z-score),[17],3.69
same,glycan array binding signal (z-score),[18],-0.602
same,glycan array binding signal (z-score),[19],2.75
same,glycan array binding signal (z-score),[20],-0.459
same,glycan array binding signal (z-score),[21],-0.154
same,glycan array binding signal (z-score),[22],-0.318
same,glycan array binding signal (z-score),[23],0.241
same,glycan array binding signal (z-score),[24],-0.547
same,glycan array binding signal (z-score),[25],-1.06
same,glycan array binding signal (z-score),[26],-0.19
same,glycan array binding signal (z-score),[27],-0.013
same,glycan array binding signal (z-score),Neu5Ac(a2-6)GalNAc,-0.311
same,glycan array binding signal (z-score),[28],-0.185
same,glycan array binding signal (z-score),[29],0.407
same,glycan array binding signal (z-score),[30],-0.247

# Part of the list above, with bars between the fields:
binder | measurement | setting | value
B1 | glycan array binding signal (z-score) | [4] | -0.565
same | glycan array binding signal (z-score) | [7] | 0.066
same | glycan array binding signal (z-score) | [8] | -0.425
same | glycan array binding signal (z-score) | [9] | -0.358
same | glycan array binding signal (z-score) | [16] | -0.919
same | glycan array binding signal (z-score) | [26] | -0.19
same | glycan array binding signal (z-score) | [27] | -0.013
same | glycan array binding signal (z-score) | Neu5Ac(a2-6)GalNAc | -0.311
same | glycan array binding signal (z-score) | [30] | -0.247
